The exact form of at least one protein or probe is not confirmed. For part of these data: The comparison behind a weaker result is the experiment's own reference, which may not be listed here. For part of these data: At least one verdict was read from the data and is not stated in words by the source.
Assays:
Assay in all cases: EMSA
[1] = system: POLγA WT + POLγB; conditions: with POLγB, 10 mM Mg2+, 3 mM dCTP, 0.3 mM ddGTP, EMSA: 15 µl, 10 fmol DNA, 450 fmol POLγA, 1.8 pmol POLγB where indicated, 20 mM Tris-HCl pH 7.5, 1 mM DTT, 0.1 mg/ml BSA, 10 mM MgCl2, 10% glycerol, recombinant protein, protein details: C-terminal 6xHis,C-terminal 6xHis, label: 5'-32P on S6
[2] = molecular target: POLγA S305R (UniProt P54098); conditions: no POLγB, 10 mM Mg2+, 3 mM dCTP, 0.3 mM ddGTP, EMSA: 15 µl, 10 fmol DNA, 450 fmol POLγA, 1.8 pmol POLγB where indicated, 20 mM Tris-HCl pH 7.5, 1 mM DTT, 0.1 mg/ml BSA, 10 mM MgCl2, 10% glycerol, recombinant protein, protein details: C-terminal 6xHis, label: 5'-32P on S6
[3] = molecular target: POLγA L304R (UniProt P54098); conditions: no POLγB, 10 mM Mg2+, 3 mM dCTP, 0.3 mM ddGTP, EMSA: 15 µl, 10 fmol DNA, 450 fmol POLγA, 1.8 pmol POLγB where indicated, 20 mM Tris-HCl pH 7.5, 1 mM DTT, 0.1 mg/ml BSA, 10 mM MgCl2, 10% glycerol, recombinant protein, protein details: C-terminal 6xHis, label: 5'-32P on S6
[4] = molecular target: POLγA R275Q (UniProt P54098); conditions: no POLγB, 10 mM Mg2+, 3 mM dCTP, 0.3 mM ddGTP, EMSA: 15 µl, 10 fmol DNA, 450 fmol POLγA, 1.8 pmol POLγB where indicated, 20 mM Tris-HCl pH 7.5, 1 mM DTT, 0.1 mg/ml BSA, 10 mM MgCl2, 10% glycerol, recombinant protein, protein details: C-terminal 6xHis, label: 5'-32P on S6
[5] = molecular target: POLγA G303R (UniProt P54098); conditions: no POLγB, 10 mM Mg2+, 3 mM dCTP, 0.3 mM ddGTP, EMSA: 15 µl, 10 fmol DNA, 450 fmol POLγA, 1.8 pmol POLγB where indicated, 20 mM Tris-HCl pH 7.5, 1 mM DTT, 0.1 mg/ml BSA, 10 mM MgCl2, 10% glycerol, recombinant protein, protein details: C-terminal 6xHis, label: 5'-32P on S6
[6] = molecular target: POLγA WT (UniProt P54098); conditions: no POLγB, 10 mM Mg2+, 3 mM dCTP, 0.3 mM ddGTP, EMSA: 15 µl, 10 fmol DNA, 450 fmol POLγA, 1.8 pmol POLγB where indicated, 20 mM Tris-HCl pH 7.5, 1 mM DTT, 0.1 mg/ml BSA, 10 mM MgCl2, 10% glycerol, recombinant protein, protein details: C-terminal 6xHis, label: 5'-32P on S6

Protein sequences, listed by entry. Tags and fused reporters are not part of them. Residues count along the entry.
UniProt P54098, 26-1239 S305R: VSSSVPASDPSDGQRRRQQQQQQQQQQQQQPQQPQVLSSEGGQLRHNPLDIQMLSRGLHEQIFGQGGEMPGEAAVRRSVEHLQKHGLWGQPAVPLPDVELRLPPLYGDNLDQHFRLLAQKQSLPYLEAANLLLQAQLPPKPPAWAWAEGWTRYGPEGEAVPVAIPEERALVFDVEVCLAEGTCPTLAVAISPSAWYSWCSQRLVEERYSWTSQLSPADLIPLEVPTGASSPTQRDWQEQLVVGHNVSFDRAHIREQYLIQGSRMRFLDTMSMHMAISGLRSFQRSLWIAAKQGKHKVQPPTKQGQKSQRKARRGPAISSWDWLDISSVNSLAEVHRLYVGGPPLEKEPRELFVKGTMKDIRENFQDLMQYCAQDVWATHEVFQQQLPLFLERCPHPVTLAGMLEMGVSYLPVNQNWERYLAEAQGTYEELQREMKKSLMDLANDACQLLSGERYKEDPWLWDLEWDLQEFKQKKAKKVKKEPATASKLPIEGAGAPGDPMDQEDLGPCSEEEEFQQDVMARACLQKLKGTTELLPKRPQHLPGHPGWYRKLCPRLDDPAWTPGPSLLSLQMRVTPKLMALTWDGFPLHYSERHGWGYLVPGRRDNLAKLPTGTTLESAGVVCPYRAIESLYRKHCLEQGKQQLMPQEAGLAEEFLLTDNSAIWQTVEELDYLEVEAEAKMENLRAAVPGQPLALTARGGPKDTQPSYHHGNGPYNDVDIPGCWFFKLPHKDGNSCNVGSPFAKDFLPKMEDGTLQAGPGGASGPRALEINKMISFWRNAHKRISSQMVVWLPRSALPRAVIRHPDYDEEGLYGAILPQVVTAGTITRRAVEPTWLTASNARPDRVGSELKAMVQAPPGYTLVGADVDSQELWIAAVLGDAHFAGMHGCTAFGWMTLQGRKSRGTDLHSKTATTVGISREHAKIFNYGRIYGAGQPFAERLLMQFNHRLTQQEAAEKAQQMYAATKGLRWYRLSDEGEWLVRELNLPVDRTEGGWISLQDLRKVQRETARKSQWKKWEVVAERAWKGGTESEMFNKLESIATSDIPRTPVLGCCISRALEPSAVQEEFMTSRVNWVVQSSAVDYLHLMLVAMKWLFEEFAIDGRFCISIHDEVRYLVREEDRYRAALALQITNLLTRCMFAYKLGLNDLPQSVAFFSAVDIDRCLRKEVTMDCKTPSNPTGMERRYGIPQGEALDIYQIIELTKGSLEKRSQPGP
UniProt P54098, 26-1239 L304R: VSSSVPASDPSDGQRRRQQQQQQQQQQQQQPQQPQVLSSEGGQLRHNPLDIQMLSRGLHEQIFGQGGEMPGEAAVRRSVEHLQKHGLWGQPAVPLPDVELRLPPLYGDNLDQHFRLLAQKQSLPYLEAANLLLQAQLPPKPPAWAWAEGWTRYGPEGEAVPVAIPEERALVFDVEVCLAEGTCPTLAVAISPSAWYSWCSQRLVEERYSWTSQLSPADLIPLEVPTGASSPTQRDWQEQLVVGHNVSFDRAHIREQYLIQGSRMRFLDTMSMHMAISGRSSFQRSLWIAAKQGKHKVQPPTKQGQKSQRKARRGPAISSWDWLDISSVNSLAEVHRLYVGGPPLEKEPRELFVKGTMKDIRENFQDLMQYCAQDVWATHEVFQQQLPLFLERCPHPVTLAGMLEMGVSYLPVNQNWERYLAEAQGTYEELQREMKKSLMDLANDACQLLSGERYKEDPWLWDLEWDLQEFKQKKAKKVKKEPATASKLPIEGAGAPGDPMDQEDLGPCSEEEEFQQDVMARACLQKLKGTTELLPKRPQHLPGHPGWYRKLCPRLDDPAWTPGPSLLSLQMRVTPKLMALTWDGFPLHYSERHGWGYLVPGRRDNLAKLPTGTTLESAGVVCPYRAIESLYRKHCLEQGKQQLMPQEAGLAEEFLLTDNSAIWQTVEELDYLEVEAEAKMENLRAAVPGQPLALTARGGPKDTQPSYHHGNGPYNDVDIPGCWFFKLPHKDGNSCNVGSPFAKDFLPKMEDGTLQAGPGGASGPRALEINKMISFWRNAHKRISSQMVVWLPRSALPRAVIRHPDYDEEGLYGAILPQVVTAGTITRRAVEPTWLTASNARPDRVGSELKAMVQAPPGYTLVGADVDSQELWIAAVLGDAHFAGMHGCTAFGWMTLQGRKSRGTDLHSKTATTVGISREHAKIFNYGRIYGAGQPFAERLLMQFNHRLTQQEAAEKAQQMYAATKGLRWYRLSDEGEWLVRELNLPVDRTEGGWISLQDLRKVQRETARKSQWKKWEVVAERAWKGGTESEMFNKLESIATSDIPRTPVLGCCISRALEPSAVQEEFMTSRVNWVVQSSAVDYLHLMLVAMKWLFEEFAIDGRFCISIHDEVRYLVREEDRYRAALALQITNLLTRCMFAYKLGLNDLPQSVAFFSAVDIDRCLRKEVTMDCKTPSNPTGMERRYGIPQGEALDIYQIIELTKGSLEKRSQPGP
UniProt P54098, 26-1239 R275Q: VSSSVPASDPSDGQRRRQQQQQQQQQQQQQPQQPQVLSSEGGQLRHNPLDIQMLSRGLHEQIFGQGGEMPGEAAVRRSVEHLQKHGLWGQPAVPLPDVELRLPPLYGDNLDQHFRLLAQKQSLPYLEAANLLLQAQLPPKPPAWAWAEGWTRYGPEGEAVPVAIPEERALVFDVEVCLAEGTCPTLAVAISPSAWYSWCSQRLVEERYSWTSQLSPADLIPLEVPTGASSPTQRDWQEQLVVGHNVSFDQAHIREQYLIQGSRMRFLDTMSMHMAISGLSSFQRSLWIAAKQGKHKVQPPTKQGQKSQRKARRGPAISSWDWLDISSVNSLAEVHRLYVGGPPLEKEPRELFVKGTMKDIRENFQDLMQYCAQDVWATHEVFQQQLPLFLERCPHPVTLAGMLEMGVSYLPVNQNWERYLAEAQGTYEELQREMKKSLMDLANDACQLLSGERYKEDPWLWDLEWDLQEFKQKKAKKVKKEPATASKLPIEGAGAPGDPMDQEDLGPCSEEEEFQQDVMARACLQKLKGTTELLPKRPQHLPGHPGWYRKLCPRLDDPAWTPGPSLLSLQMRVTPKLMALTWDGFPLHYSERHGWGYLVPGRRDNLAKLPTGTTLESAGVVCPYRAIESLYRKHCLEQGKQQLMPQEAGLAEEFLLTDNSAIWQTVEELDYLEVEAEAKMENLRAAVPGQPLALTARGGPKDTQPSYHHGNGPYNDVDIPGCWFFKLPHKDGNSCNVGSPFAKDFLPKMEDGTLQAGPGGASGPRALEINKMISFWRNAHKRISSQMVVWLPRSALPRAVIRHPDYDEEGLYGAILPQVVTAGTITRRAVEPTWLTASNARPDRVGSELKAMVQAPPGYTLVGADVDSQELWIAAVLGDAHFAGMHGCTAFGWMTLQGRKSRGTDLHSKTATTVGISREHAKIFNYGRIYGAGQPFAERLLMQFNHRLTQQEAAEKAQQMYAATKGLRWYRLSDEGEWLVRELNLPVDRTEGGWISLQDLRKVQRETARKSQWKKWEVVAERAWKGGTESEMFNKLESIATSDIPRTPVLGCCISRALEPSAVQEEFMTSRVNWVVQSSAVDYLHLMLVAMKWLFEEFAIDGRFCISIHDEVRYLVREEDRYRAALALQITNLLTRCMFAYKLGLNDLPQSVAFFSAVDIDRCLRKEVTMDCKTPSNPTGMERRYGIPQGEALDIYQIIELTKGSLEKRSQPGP
UniProt P54098, 26-1239 G303R: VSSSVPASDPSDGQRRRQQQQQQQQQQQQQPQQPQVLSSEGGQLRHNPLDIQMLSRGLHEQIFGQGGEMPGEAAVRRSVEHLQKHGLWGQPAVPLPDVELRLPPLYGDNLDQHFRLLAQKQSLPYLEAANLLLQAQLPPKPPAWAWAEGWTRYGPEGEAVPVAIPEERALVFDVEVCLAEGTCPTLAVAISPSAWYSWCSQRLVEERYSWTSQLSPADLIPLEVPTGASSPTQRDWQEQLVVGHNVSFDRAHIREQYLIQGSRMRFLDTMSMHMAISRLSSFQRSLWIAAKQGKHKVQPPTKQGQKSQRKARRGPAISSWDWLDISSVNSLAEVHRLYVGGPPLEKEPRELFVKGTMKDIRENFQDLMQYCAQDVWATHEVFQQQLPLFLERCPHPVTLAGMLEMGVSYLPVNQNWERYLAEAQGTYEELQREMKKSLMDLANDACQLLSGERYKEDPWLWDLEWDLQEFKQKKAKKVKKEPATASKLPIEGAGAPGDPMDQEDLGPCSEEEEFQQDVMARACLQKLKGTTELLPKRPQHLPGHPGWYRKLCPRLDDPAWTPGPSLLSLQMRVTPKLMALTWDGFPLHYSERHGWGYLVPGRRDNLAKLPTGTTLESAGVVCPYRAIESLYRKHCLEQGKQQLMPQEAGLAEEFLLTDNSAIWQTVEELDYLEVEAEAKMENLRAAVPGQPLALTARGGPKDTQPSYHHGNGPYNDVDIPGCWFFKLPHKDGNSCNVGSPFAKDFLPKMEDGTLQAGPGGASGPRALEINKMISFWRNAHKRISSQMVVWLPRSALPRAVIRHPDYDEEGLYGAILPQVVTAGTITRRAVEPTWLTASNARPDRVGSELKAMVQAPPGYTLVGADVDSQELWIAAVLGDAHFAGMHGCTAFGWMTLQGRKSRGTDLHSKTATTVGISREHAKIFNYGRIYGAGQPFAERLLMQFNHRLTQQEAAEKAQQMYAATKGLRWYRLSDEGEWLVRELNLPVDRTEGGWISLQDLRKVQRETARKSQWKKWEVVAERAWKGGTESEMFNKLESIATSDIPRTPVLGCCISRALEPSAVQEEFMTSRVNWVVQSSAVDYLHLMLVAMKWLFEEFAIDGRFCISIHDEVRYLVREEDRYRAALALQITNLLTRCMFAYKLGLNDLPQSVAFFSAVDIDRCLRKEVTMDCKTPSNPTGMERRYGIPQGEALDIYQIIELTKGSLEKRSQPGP
UniProt P54098, 26-1239: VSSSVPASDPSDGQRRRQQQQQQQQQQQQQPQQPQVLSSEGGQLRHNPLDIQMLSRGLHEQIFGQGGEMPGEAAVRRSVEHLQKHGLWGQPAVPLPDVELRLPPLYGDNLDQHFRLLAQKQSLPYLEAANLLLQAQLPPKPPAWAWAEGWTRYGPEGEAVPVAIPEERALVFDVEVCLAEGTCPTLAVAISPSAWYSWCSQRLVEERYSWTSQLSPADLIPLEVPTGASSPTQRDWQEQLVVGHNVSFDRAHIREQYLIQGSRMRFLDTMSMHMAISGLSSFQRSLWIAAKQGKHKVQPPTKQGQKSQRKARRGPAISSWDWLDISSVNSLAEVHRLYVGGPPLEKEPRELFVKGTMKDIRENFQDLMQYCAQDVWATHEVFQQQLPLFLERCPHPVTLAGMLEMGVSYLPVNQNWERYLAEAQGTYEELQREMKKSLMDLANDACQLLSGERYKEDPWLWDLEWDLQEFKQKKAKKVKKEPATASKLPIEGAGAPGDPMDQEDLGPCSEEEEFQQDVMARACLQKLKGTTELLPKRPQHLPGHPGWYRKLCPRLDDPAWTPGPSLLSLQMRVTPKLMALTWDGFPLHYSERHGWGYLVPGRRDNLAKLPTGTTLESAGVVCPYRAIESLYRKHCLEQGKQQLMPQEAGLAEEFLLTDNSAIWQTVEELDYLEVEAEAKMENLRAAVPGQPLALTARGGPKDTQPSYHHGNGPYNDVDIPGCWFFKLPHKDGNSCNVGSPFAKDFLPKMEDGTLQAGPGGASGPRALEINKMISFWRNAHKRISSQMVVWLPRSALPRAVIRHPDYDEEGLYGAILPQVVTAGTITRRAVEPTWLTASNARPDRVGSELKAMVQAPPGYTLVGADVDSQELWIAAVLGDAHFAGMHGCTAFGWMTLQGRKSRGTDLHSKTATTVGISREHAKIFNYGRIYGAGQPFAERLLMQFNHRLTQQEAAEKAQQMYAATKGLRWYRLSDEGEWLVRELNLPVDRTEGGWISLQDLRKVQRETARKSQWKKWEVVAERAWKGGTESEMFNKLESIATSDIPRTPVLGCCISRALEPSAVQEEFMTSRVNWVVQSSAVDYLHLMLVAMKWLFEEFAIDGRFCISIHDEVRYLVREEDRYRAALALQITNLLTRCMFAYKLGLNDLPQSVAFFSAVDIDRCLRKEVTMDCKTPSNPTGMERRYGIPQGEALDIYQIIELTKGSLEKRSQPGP

CGGTCGAGTCTAGAGGAGCC / GACTACGTCTATCCGGGCTCCTCTAGACTCGACCG [primed DNA template (20/35-mer)]
binding result [1]: binds
binding result [2]: binds more weakly
binding result [3]: binds more weakly
binding result [4]: binds more weakly
binding result [5]: binds more weakly
binding result [6]: binds
